Test: general procedure: Fmoc solid-phase peptide synthesis
Conditions: late stage modification step

Work on (PYA)-A-CiIEEGQYCiiFADPY(Nle)Ciii-A yielded a step yield of 69.96%.

In the case of (PYA)-A-CiIEEGQYCiiF[D-A]DPY[Nle]Ciii-A, the “final purity (method not given)” value is reported as 90%.

In the case of Ac-A-CiIEEGQYCiiFADK(PYA)Y(Nle)Ciii-A, the “final purity (method not given)” value is reported as 91.74% and the step yield is reported as 65.87%.

In the case of Ac-A-CiIEEGQYCiiFADPY(Nle)Ciii-Dap(PYA), the “final purity (method not given)” value is reported as 98% and the step yield is reported as 82.13%.

In the case of Ac-A-CiIEEGQYCiiFADPYK(PYA)Ciii-A, the “final purity (method not given)” value is reported as 92.0% and the step yield is reported as 73.68%.

In the case of Ac-A-CiIEEGQYCiiK(PYA)ADPY(Nle)Ciii-A, the “final purity (method not given)” value is reported as 90.5% and the step yield is reported as 53.24%.

Reference: patent US11542304B2 (BicycleTx Limited, priority 2018, dated 2023)
